# Laboratory results as given in PubChem BioAssay AID1508600 (Functional Genomics Laboratory (NCATS/FGL), 2020).
# Hit rate of the full screen: of about 53,000 sequences, about 3,700 (7%) were called active.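 How the source made its calls: active means gene knockdowns whose robust z-score for IL-1 alpha signal is at least 2 or at most -2, so actives lie on both sides; inactive means the rest.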 The list shows a part of the results.
# Test: Components of the Cytosolic LPS Sensing Pathway: Gene Identification via Genome-wide siRNA Screen;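 further: robust z of the log signal after scaling to non-targeting control siRNA wells of the plate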
# Conditions: RAW264.7 macrophages, IL-1a HTRF, actives lie on both sides, screened at 100 nM (by protocol), cells primed 5 h with Pam3CSK4 first
# Summary of the method: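 Three distinct siRNAs per gene were tested singly at 100 nM in RAW264.7 macrophages. Following Pam3CSK4 priming and 24 hour LipidA transfection, IL-1a secretion was read by HTRF.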
row,Sequence,z-score
1,GGUCUUUAGCAGAGAAAAUTT against Zfp420,inactive: -0.201
2,GGCAUUAGCUACCUGGACATT against 1700013G24Rik,active: 3.44
3,GGUAUUGGAAAGUAGAAACTT against Igflr1,inactive: 0.515
4,GCGAAUCGCACAGGAUCUUTT against Hps4,inactive: -0.707
5,GGAUGAUGAAAACAAAGAATT against Skp1,inactive: -0.239
6,GGAGAAAACCUAGAAAUUUTT against Galnt1,inactive: 0.238
7,GGAAUUCUGGGAACAAAAGTT against Riox2,inactive: -1.71
8,GGACACAACAAGAAAUUCUTT against Suclg1,inactive: 0.621
9,GGCUAUCCUCUUUUACCAUTT against Dele1,inactive: -0.374
10,GAGCAUCCGCUACUUGGUATT against Nmnat1,inactive: 0.0484
11,GGAGGAUGGUGCCAACAUUTT against Psmc3,active: -2.02
12,GGUAGUCAUACAGAUAUGUTT against Hey2,inactive: 0.973
13,GGCACUUGGAGGUAGUUUCTT against Cip2a,inactive: 0.811
14,GGAACAUGUAGAAGGUCCATT against Slc9a3r2,inactive: 1.97
15,GGCUAUGGAGAGAGUAUGCTT against Crppa,inactive: 0.413
16,GGAGGAAAGAAAAGAUCCATT against Tie1,inactive: -0.102
17,GGCUCCGAGAAAUGCAAUCTT against Mmp13,inactive: -0.832
18,GGAAGAAGUCUGAUACAUCTT against Samd5,inactive: 0.572
19,GGAAUAUUAUGGGUAUCGATT against Cacna1s,inactive: 0.952
20,GGUUGAUAGUUGUGAAAAGTT against Clcc1,inactive: 0.327
21,GGAUGCUAUAAAGAAUGCCTT against Prpf39,inactive: -1.19
22,CCAUUAUGAUUUAUGCUCCTT against Kcnmb4,inactive: -0.0937

row,Sequence,z-score
1,GGAGUCACUCACAUUGUGGTT against Poll,inactive: -0.198
2,GGUAACCUAGUGUAAGUUUTT against Atg2b,inactive: -0.0782
3,GGGCAUUUUGAUGCUUACGTT against 1700034I23Rik,inactive: -1.56
4,GGACAUUCCUGUUGAUAAUTT against Kcnj8,inactive: -0.171
5,GGAAGUUGACUUGUUCUCUTT against Ccndbp1,inactive: 0.0255
6,GGCAUUUGACACAACUGUCTT against AI182371,inactive: -1.64
7,GGUGGAAGAGAAACUCAGGTT against Mill2,inactive: -1.05
8,GCCACUCUUUAAGAAUCUATT against Abcf1,inactive: -0.552
9,CCAGACCUAUACUAUGAAUTT against Trappc12,inactive: -0.655
10,GGACCGUAUCCCAAAAGAUTT against Klf1,inactive: -0.968
11,CGUUUGAUGAGACCAUGUATT against Vwf,inactive: -0.459
12,GCAAGGAAGGCUUUCAAGATT against Gsta1,inactive: -0.00594
13,GAUGACUAGCUCUACUUUATT against Olfr738,inactive: -0.0882
14,GGAGAACCUGCUGAAGGACTT against Itgb3,inactive: -1.04
15,GGUUGUCUACUUCACCGCUTT against Slc6a6,inactive: 0.0139
16,CGAGGUACUCCAGAAUAGATT against Mstn,inactive: 1.28
17,CCUAAAGGUUCCCAACAGUTT against Serpinb3d,inactive: -0.517
18,GCCCUUUGGAAGAAUACUCTT against Golt1b,inactive: -1.12
19,GGACAUGGAUUUGAUAGACTT against Acaa2,inactive: -1.4
20,GCUCUACUCCUUACCUAGUTT against Nkain1,inactive: 0.364
21,GGAAAAAAGGUCUGUAAAUTT against Ubl4b,inactive: 0.223
22,GCAAAUUUUAUAUGCGACUTT against Glipr1,inactive: -0.561

# Fetched one by one from above:
row,Sequence,z-score
5,GGAAGUUGACUUGUUCUCUTT against Ccndbp1,inactive: 0.0255
8,GCCACUCUUUAAGAAUCUATT against Abcf1,inactive: -0.552
14,GGAGAACCUGCUGAAGGACTT against Itgb3,inactive: -1.04
20,GCUCUACUCCUUACCUAGUTT against Nkain1,inactive: 0.364

# The list goes on.

row,Sequence,z-score
1,GCUAAGCGAAGAGUUUAACTT against Dlgap3,inactive: 0.691
2,GGCUGUGAAUUGUUAACUATT against Stard4,inactive: -0.678
3,GCGAAGAUCACCAUGUCUCTT against Oosp1,inactive: -0.687
4,GCGUUUGGGCCGGAAGAAATT against Smo,inactive: 0.57
5,GGUGGCAGUGAAAGUCAUUTT against Snrk,inactive: -0.816
6,CCUUGGUCACCGAAUUUAUTT against Olfr152,inactive: -1.26
7,GCCUGGCCUUUCCAAUAUCTT against Gm16367,inactive: -1.24
8,CCGCAUGAAGAGCAACCACTT against Hgs,inactive: -0.637
9,CCACCUUUAUUCAAAAUCGTT against Mmp20,inactive: -0.451
10,GGUGGUGUCAACCUUAAAATT against Nrsn1,inactive: 0.253
11,GGAGACAUGGCAUCCAAAUTT against Cnr1,active: 3.14
12,GCGAGUUGUUUCCAUAGUUTT against Gpr22,inactive: -0.388
13,GGCCAAAUUAGAAAAAGUCTT against Polr3e,inactive: -0.00692
14,CCAUCUCUUACUAUCCAUGTT against Cmbl,inactive: -1.03
15,GGUGCUGUGGUUAAAAUGATT against Pgm5,inactive: 0.0668
16,GCUGCUCAGCCAUACCUUGTT against Nlrp14,inactive: 0.148
17,GGGUCAUGUACAAUCUCUUTT against Bbc3,inactive: 0.22
18,GGGCAACUCUGCAUACUGUTT against Nell1,inactive: 0.305
19,GGCGAUGAUCCGAAAACAGTT against Elmod1,inactive: 0.218
20,GGCCGAGUACAAACGUGGATT against Atg9a,active: 2.77
21,GGUCUCAGAAGUGGUUUUCTT against Mettl4,inactive: 0.725
22,CGAAGGGCUUUAGCUUGGATT against Capn11,inactive: 0.647

row,Sequence,z-score
1,GUCCUGGAUAUGCUCCUGUTT against Olfr544,inactive: -0.435
2,GGCUUCAUGCUACACAGAUTT against Soat2,inactive: 1.66
3,GGUAUUUGAUUCCAAAUGCTT against Tbc1d23,inactive: 0.546
4,GCCAUACCCUGAAUUACCATT against Ndnf,active: -2.01
5,GGAUUACAGGAAGUUCUGGTT against Stap2,inactive: 1.5
6,GGAUGCUCUCUUUACUGACTT against Inpp5j,inactive: 0.992
7,GGUGAAGAAGAUGUGGACUTT against Pth2r,inactive: -0.101
8,GGUUUACUGGUAAUUUUCATT against Fnbp1l,inactive: 0.948
9,CGUAAGAUGAAAGCUAUUGTT against Mtx2,inactive: -0.567
10,GGUAUCUACACCAAACUUATT against Klk1b5,inactive: 0.685
11,GGAAGAACCUUGUUUGUAUTT against Sectm1b,inactive: -1.78
12,GGGUGACAGGUUGAUCUCATT against Tcn2,active: -2.11
13,GGCUUUCUUUGCCAUGACCTT against Copg1,active: -2.93
14,GCACAAGAGGUAUCCUUGCTT against Gm5111,inactive: 0.000682
15,CGAGCAGAGUUUUUGAAUATT against Cald1,inactive: -0.923
16,GGAAAUUUUCAAGCUCAAGTT against Gsdmd,active: -2.44
17,GUACUGAUACUAGGCUCCUTT against Olfr1387,inactive: 0.492
18,GGAGAUUUACUGCUCGCUGTT against Pik3r6,inactive: 0.0343
19,CGCUAUGAAACCUCACUAATT against E2f1,inactive: -0.598
20,GAAAAUCUAAGGAUCCUUGTT against Vmn1r179,inactive: 0.402
21,CGUGAGGUUAUGAUGUAUUTT against Gm5444,inactive: -1.3
22,CCAUUAUGAGUAUAGUUGCTT against Ufm1,inactive: -1.34

# Taken from above.
# Entry for GGAUUACAGGAAGUUCUGGTT against Stap2 under z-score: inactive: 1.5
# Entry for CGAGCAGAGUUUUUGAAUATT against Cald1 under z-score: inactive: -0.923

# Additional records follow.

row,Sequence,z-score
1,GGACUCCACUCCAAAUACATT against Tnfsf8,inactive: 0.114
2,GGGUUUUUACAUUCAGAAGTT against Trib2,inactive: 0.121
3,GGUAAUGAAGGAACUGGAUTT against S100a1,inactive: 0.0105
4,GCUCAGGUAUCUUCGAUUATT against Zfp975,inactive: 0.842
5,GGCUUACAAUGUGAUUUACTT against Cd7,inactive: 1.92
6,GGGACCACUCCUUCAUCACTT against A630001G21Rik,inactive: 0.0374
7,GCCUCACUUUGCCAUGCAUTT against Pou4f1,inactive: -1.78
8,GGGAUGAAAUCAAUUGUACTT against Lrp12,inactive: -0.226
9,GGGCCCAGUUGAUCAAAGATT against Ttc29,inactive: -0.158
10,GGACAACUCGAUUUUAUCCTT against Nudt15,inactive: 1.03
11,GGAAUCAGAUACAAAGGAGTT against Sil1,inactive: 0.265
12,GGCCAGAGACAGUUAUCUUTT against Sptssb,active: 2.43
13,GUGGCCAAAACAACAUGCATT against Olfr1348,inactive: -0.291
14,GGAAGUCGAGGUAUACACUTT against Pax2,inactive: 0.0774
15,GGACAUUGACCUGUUCGGCTT against Eef1d,inactive: 0.952
16,GGAUGUCAGAUUUGUCAGCTT against Trpm7,inactive: -0.439
17,CCUAAACCCUCAGUUCUCUTT against Slfnl1,inactive: -1.22
18,GGAGAUAAAGUCUUAUCACTT against Misp,active: -2.05
19,GGGAGACUCCUUUUGCACUTT against Wnt1,inactive: 0.574
